Results on 107 sequences are retold here after PubChem BioAssay AID1508600 (Functional Genomics Laboratory (NCATS/FGL), 2020).

About 3,700 (7%) of roughly 53,000 sequences were called active.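 The calls were made as follows: active = gene knockdowns whose robust z-score for IL-1 alpha signal is at least 2 or at most -2, so actives lie on both sides; inactive = the rest.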 Some of the results follow.

This test can be described thus: Components of the Cytosolic LPS Sensing Pathway: Gene Identification via Genome-wide siRNA Screen.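 Also: robust z of the log signal after scaling to non-targeting control siRNA wells of the plate.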 The note with it: RAW264.7 macrophages, IL-1a HTRF, actives lie on both sides, screened at 100 nM (by protocol), cells primed 5 h with Pam3CSK4 first. The method in brief: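 Mouse macrophage line RAW264.7 is transfected with siRNA (100 nM final), grown 48h, primed with TLR ligand Pam3CSK4 5 h and given intracellular LipidA 24 h. IL-1a in supernatant is read by HTRF and viability by luminescence.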
On to GGUUUUAUGUAUGAAACUCTT against Mcub, for which the z-score is inactive: -0.605.
The figure for GGAACUGCUCGACAAAGCUTT against Primpol is active: -2.53; for GCAUUAAGCACGAGAAAAATT against Slc18a2 it is inactive: 0.575.
With GGGAAUAUUUUCAAGUUGCTT against Tmem14a, the z-score was inactive: 0.795.
On to GGAAUGAAAGACAACCUAATT against Epb42, for which the z-score was inactive: 1.71.
Next, GGAAGAGGUGAAAAUUACCTT against Plg: inactive: -0.307; GGAGAAACCUGACAUGUCUTT against Guf1: inactive: -1.33; GGAAUUCGAUGCAUUUGUATT against Il18rap: inactive: -0.34.
Consider GGUGAUCUCUUUAUUCUACTT against Olfr472, for which the z-score was inactive: 0.485.
With GGACGAUGGAAAGCUCUAUTT against Olfr1229, the z-score was inactive: -0.485.
Next, GGAUGUGGACACCUUUGCATT against Pxmp2: inactive: 0.291; GGUCACUUCAUCCAUAGCUTT against Atmin: inactive: -1.79.
Consider GCUUGUCUACAAAUACUCUTT against Morc2a, for which the z-score is inactive: 0.276.
The figure for GGGAAACCUUCUGUACCAGTT against Vps37b is inactive: 0.93; for GGUUUAAAGAAACUACCAGTT against Pam it is inactive: 1.7.
On to “GCCUGCAUUAAACUCAUGUTT against A930017M01Rik”, for which the z-score is inactive: -0.125.
On to GCCGAAAAUUACCAAAUGATT against Cnksr2, for which the z-score was inactive: -1.65.
For GGUAGUUAGGUACCAUUUGTT against Ppm1e, the z-score was inactive: 1.14.
Next, GGUUCAAGGUGAAGACUCCTT against Reg3b: inactive: 0.793.
The figure for GGCUUUCUUCAACCUGAGUTT against Duoxa1 is active: -2.43.
With GGAUUUCUUCCAGAAGAUGTT against Grhpr, the z-score was inactive: -1.54.
The figure for GCUAGAUACUAACAACUCCTT against T is inactive: 0.594.
Consider CCAAUAAAUUACAAGACGATT against Slc22a21, for which the z-score is inactive: -0.578.
On to GGGAAAAGCUUUGGUUGCCTT against Gpsm2, for which the z-score is inactive: -1.71.
Consider GGCGUACGUAGACAAGUACTT against Scaf11, for which the z-score is active: -2.23.
Take GACAAGGUGCCAUACCAUUTT against Olfr351: the z-score is inactive: -0.373.
With GGACAGAGCUACACAAACUTT against Vmn1r81, the z-score is inactive: -0.443.
“GGUCAUGAAAAUUAAAGCATT against 1110059G10Rik”: the z-score is active: -2.31.
Next, GCUUUAUUGCUACAAAUUGTT against Lcor: inactive: 0.273; GGGAGUUUCCAGAUGUUUUTT against Gclm: inactive: 0.0729; GCACUUGUUGUUAUACUUCTT against Olfr23: inactive: 0.782.
The figure for GGUCUAGGAUCAAUGCCUATT against Trpc3 is inactive: -1.05.
The figure for GCCGGACAACUCUAAUCAGTT against Herpud1 is active: 3.22; for CGGCUUAUGAGUUAAAGACTT against Rad51b it is inactive: -1.03.
As for GGCUUGGCUUCUUUAUUGUTT against Olfr218, the z-score was inactive: -0.182.
Regarding GGGCGAGAUCGCUACUAUUTT against Irf2bp1, the z-score is inactive: 1.79.
The figure for GGAGGACUAGGAGUGAUUGTT against Fggy is inactive: -0.363; for GGGUAGGUUUGAAAGAAAGTT against Zfp24 it is inactive: -0.614.
Take CCUCUGUCUAGAAUUACUATT against Kcnv2: the z-score is inactive: 1.87.
Next, GCAAUUAGUCACCAAGGCCTT against Ube2v1: inactive: -0.0555; GCGUGAGAGAACAACAGACTT against Fam133b: inactive: -0.692; GGACAACAUUCAUUUCUGUTT against Acaa1b: inactive: -0.335.
Next, GGUGACAGGUCAGAAAGUCTT against Tor1aip2: active: -2.78; GGCUAUGAAUCCAGAGCUUTT against Sun1: inactive: -0.0964; CCGUGAAUGACUCGUCCUCTT against Dhrsx: inactive: -0.095.
Turning to GCCAAUAUAUCUGUGGUGUTT against Olfr1186, the z-score was inactive: 0.208.
Next, GAGUGCUCUGAAAUAUUUUTT against Mup4: inactive: -0.409; GGCGCAUGCAGAGUAUCAATT against Tfap4: inactive: 0.535; CGUAGAGAUGGCGUAUGUCTT against Mpnd: inactive: 0.209.
With GCUAAAACAAGUUUGAAGATT against Sntg2, the z-score is inactive: 0.142.
The figure for GGAGUUCACGGAUCUUGAGTT against Ppp1r37 is inactive: 0.226; for GGCAAUGAUCUUAUUCCAATT against Akr1cl it is inactive: 1.42; for GAACUAAGACACAUCUUUGTT against Tnni3k it is inactive: 1.61.
Next, GCAAAACUGAACAAAGUACTT against Xirp2: inactive: 0.658; CGAGUCAGACCUUGAUCUATT against Zfat: inactive: 1.03; CCAGAACUUCCCAUUAAAATT against Alg8: inactive: -0.771.
Next, GCAUCUAACUACUUGGGCCTT against Hhip: inactive: 1.18.
Regarding GUUUCAGUGCAGCCAUUACTT against Olfr518, the z-score was inactive: -0.747.
Next, CCCUCAGAUCUUUCAGUCUTT against Btbd16: inactive: -1.01; GCAAGAGGAACCUUUCUUGTT against Mmp17: inactive: 0.662; CCUCAGCAAAUAUAUGGCATT against Ccdc7b: inactive: 0.0117.
GGUGUGUGGUUUUUAAUAATT against Abhd3: the z-score was inactive: -0.692.
Next, GGACAAGAAGAACAUCAUCTT against Cfl1: inactive: 1.16.
The figure for GGAUUUUUCAGGAGAUAUGTT against Ubtf is inactive: -1.07; for GGACAGAUCCCAUUCAAAUTT against Mpped1 it is inactive: 0.316.
Take GGACAUACGGUUUCAUUGUTT against Ptprv: the z-score is inactive: -0.527.
With GCAGCCAAAUUCAUCCUCATT against Tspan33, the z-score was inactive: -0.552.
CCCACCCUAAAUUUAGGAUTT against Opa3: the z-score was inactive: 0.363.
The figure for GGAUGCCAAAGCAGCUCAUTT against Epc1 is inactive: -1.56.
For the sequence GGUGAUUUUCGAUAUACACTT against Dclre1b, the z-score is inactive: 0.257.
Turning to GGAAAGAAAGUUCUUUAGATT against Rbm41, the z-score was inactive: 0.548.
Next, GGGAGAUCUUGACAAAUUCTT against Aplp1: active: 2.32; GGUGUCAUGAUGGAGCUGATT against Crygc: inactive: 0.862; GGAAUGGUCCCUCCAAUGATT against Prpf40b: active: 2.38.
The figure for GGAAGCAGUCAGAGAAGAATT against Smim11 is inactive: -0.426; for GGAAAAGACUAAAAUGCUUTT against Rbm5 it is inactive: -0.419; for GGUCCCUGCAAAGUAGAAUTT against Olfr1153 it is inactive: 0.534.
For GGUUGACAACCACCUUUUUTT against Pip4k2a, the z-score was inactive: -0.563.
CCUUUUUACUUCGAGAUUCTT against Socs4: the z-score is inactive: -0.2.
Next, CGAUCCAAUGGAUUUCAAGTT against Col3a1: inactive: 0.0811; GGAGCAAAUAGGGUUCAUUTT against Rhox10: inactive: -1.08; GUGACAUCAACUUAAUGGATT against Klra20: inactive: 0.0605.
Next, CGUUUUUCUUAUGAUCAGGTT against Ankrd13b: inactive: -0.182; GGUUUUUACUUUGACCCUGTT against Dcaf4: inactive: 0.694; CCCGCAUGCUCUUUGUAACTT against Kansl3: inactive: -0.146.
For the sequence GGCUCUCAUUGAUGCAUGUTT against Cpeb4, the z-score is inactive: -0.264.
In the case of GCAUGUUUUGGUGUAUAGUTT against Arl4a, the z-score was inactive: -1.81.
In the case of GGCUUUUGAGAGCUACCGGTT against Ell, the z-score is inactive: -0.473.
The figure for GCUGAUUCUUCACUUUGUGTT against Coq9 is inactive: -1.03.
The figure for GGGUGCUGAUGGACAAUAATT against Speer3 is inactive: -1.05; for GGAAUCACAUCCAGUUGGUTT against Diablo it is inactive: -0.546; for GGCGGUCAAUGACCUCAUATT against Ces1f it is inactive: -1.17.
With GGAAGUUUCUGAAGGAACATT against Olfr630, the z-score is inactive: -0.237.
The figure for GGAUUAGGAAUUCUUGUGUTT against Oxld1 is inactive: 0.22; for CCAGCAAUAACAAUCAGAGTT against Lzts3 it is inactive: 0.528; for GGCUGCAUAAAGGUGUUGATT against Cyria it is inactive: 1.93.
Next, GGUGAUCACUAAACUCCAATT against Msh4: inactive: 0.116.
For GGCCUUUCCUCUACACCCUTT against Plb1, the z-score is inactive: 1.02.
The figure for ACAACAUGAUUGUCGUGGATT against Ugt1a6a is inactive: 0.831; for CCUGUAGGAGUGACUUCCUTT against Crbn it is inactive: 0.223; for GGCUUGUUUCCACCAAUAGTT against Creb3l2 it is inactive: 0.88.
Next, GCCAAGUCUGCUUCACGAGTT against Nyap1: inactive: 1.82.
Next, GAAAGUGGCCGUAAAGGUGTT against Nkx3-2: inactive: -0.178.
As for GACAAUAUCUCUGAAUGGATT against Olfr459, the z-score is inactive: -0.946.
Turning to GGACUAAACAGAUUCACUATT against Rnase9, the z-score was active: -2.42.
For GCUCAGACUGGUCCCUUAATT against Ywhab, the z-score is inactive: -0.337.
Turning to GGAACCUGUGGAGAAGGCUTT against Zfp101, the z-score was inactive: 1.16.
